For 1 molecule, binding results are on record in article PMC4223510.

Test [1] deals with His-tagged HIV-1 integrase p32 (His-INp32) (HIV-1 strain NL4-3). The test can be described thus: pull-down; 293T cells cotransfected with Flag-HAP95 and a His-tagged protein; lysates (50 mM NaH2PO4 pH 8.0, 150 mM NaCl, 10 mM imidazole, 0.5% Triton X-100, 10% glycerol) precipitated with Ni-NTA agarose, 4°C, 2 h; eluted with 250 mM imidazole; Western blot with anti-His and anti-Flag. A general note: A western blot detects proteins with antibodies after separation by electrophoresis.

The target in test [2] is His-tagged HIV-1 reverse transcriptase p66 (His-RTp66) (HIV-1 strain NL4-3). The description is as above.

Results are given in words; binding and its absence hold for the method and conditions named. Binding seen in cells or lysates may run through a third protein. For some assays here: Binding can be weak; no strength is given. Tags and fused reporters may be left off the sequences shown.

B1: Flag-HAP95 (N-terminally Flag-tagged A-kinase anchoring protein 95-like protein) (protein, UniProt Q9ULX6 2-646)
chain: SYTGFVQGSETTLQSTYSDTSAQPTCDYGYGTWNSGTNRGYEGYGYGYGYGQDNTTNYGYGMATSHSWEMPSSDTNANTSASGSASADSVLSRINQRLDMVPHLETDMMQGGVYGSGGERYDSYESCDSRAVLSERDLYRSGYDYSELDPEMEMAYEGQYDAYRDQFRMRGNDTFGPRAQGWARDARSGRPMASGYGRMWEDPMGARGQCMSGASRLPSLFSQNIIPEYGMFQGMRGGGAFPGGSRFGFGFGNGMKQMRRTWKTWTTADFRTKKKKRKQGGSPDEPDSKATRTDCSDNSDSDNDEGTEGEATEGLEGTEAVEKGSRVDGEDEEGKEDGREEGKEDPEKGALTTQDENGQTKRKLQAGKKSQDKQKKRQRDRMVERIQFVCSLCKYRTFYEDEMASHLDSKFHKEHFKYVGTKLPKQTADFLQEYVTNKTKKTEELRKTVEDLDGLIQQIYRDQDLTQEIAMEHFVKKVEAAHCAACDLFIPMQFGIIQKHLKTMDHNRNRRLMMEQSKKSSLMVARSILNNKLISKKLERYLKGENPFTDSPEEEKEQEEAEGGALDEGAQGEAAGISEGAEGVPAQPPVPPEPAPGAVSPPPPPPPEEEEEGAVPLLGGALQRQIRGIPGLDVEDDEEGGGGAP
Turning to B1, the binding entry in test [1] was “no binding”; in test [2], “binds”.
